The supplement of paper PMC10849652
The list shows a part of the results.

The chains behind the UniProt entries cited, without tags or fusion partners. Where a name states a change or a piece, a line headed by the entry shows the natural chain unless it says otherwise.
UniProt P35232: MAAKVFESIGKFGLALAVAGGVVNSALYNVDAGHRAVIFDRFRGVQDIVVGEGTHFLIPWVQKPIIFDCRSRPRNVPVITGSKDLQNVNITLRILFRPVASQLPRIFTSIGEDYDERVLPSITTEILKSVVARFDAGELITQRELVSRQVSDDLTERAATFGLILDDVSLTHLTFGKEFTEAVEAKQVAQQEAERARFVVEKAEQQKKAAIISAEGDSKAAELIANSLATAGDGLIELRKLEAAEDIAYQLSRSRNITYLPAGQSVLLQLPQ
UniProt Q5JRX3: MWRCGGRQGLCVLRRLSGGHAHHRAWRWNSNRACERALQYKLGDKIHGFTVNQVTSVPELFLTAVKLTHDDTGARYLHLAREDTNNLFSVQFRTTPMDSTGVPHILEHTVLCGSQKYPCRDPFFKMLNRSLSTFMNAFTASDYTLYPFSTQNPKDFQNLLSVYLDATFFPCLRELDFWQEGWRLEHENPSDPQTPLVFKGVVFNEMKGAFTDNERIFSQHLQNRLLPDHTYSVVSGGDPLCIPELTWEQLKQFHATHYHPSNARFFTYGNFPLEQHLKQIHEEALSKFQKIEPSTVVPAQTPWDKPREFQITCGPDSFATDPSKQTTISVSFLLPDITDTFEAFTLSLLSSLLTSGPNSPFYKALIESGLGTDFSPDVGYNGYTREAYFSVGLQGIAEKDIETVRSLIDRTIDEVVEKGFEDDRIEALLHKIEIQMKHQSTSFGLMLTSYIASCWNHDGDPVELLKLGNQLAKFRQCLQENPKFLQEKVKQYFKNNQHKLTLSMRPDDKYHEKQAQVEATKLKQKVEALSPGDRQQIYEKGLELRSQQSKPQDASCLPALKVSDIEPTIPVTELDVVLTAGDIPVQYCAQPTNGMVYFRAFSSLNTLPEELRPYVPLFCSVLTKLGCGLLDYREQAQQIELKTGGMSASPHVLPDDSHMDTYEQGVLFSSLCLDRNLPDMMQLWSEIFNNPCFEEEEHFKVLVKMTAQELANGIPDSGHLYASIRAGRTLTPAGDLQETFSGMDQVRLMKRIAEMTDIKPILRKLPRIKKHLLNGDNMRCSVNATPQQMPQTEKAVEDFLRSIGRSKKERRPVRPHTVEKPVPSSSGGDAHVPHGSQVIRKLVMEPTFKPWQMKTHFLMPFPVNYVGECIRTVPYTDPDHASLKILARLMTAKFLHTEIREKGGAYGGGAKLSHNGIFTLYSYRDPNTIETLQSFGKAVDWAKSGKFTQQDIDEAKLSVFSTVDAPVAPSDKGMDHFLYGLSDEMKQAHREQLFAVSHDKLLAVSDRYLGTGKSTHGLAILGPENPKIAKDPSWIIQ
UniProt Q9BZM1: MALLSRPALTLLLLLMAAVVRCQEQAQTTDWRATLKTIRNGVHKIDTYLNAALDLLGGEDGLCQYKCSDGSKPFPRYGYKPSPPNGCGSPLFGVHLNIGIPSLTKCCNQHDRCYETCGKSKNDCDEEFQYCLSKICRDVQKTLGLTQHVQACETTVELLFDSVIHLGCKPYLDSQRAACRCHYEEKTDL
UniProt Q96BK5: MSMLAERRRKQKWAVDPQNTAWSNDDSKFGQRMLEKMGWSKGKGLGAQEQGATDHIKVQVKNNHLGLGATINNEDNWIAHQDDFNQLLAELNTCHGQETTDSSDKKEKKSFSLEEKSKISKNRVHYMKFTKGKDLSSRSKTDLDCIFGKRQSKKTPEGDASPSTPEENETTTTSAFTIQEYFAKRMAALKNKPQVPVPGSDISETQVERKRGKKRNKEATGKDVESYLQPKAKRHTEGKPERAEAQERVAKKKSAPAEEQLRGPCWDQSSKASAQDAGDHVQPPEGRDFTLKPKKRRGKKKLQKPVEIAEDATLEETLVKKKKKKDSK
UniProt Q8NHP8: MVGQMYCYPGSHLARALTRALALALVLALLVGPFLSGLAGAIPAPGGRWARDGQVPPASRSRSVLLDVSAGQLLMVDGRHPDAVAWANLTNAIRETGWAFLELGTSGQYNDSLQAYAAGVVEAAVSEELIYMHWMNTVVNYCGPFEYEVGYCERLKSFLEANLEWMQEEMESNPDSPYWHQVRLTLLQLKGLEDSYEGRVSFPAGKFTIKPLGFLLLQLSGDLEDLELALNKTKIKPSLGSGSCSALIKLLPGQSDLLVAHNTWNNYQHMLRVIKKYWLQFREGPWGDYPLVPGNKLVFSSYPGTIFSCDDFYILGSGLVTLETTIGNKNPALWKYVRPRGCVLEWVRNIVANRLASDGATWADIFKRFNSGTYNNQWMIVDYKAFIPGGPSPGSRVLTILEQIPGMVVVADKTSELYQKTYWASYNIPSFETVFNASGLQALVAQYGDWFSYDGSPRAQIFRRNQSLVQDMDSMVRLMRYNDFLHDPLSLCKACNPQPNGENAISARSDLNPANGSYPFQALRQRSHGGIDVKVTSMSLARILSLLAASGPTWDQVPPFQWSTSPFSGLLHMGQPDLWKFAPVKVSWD
UniProt Q8IWS0: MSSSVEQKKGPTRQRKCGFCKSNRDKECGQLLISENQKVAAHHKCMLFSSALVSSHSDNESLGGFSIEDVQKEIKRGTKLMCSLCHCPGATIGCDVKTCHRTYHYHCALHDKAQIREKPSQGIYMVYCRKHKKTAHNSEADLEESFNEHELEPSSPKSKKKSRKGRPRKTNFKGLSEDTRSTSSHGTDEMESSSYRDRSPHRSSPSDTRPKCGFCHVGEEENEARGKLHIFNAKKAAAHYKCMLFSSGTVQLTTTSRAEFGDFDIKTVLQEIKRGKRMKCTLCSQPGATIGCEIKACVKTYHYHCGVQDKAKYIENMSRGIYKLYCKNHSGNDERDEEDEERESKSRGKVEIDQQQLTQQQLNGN
UniProt Q86T03: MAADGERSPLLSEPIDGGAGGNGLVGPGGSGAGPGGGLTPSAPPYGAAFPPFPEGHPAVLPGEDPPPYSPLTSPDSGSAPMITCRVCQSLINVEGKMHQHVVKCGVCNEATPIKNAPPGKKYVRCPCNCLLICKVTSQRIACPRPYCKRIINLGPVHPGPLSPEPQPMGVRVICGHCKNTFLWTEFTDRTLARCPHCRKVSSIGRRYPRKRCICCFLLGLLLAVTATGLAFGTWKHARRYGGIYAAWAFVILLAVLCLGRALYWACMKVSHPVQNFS
UniProt Q8IZ21: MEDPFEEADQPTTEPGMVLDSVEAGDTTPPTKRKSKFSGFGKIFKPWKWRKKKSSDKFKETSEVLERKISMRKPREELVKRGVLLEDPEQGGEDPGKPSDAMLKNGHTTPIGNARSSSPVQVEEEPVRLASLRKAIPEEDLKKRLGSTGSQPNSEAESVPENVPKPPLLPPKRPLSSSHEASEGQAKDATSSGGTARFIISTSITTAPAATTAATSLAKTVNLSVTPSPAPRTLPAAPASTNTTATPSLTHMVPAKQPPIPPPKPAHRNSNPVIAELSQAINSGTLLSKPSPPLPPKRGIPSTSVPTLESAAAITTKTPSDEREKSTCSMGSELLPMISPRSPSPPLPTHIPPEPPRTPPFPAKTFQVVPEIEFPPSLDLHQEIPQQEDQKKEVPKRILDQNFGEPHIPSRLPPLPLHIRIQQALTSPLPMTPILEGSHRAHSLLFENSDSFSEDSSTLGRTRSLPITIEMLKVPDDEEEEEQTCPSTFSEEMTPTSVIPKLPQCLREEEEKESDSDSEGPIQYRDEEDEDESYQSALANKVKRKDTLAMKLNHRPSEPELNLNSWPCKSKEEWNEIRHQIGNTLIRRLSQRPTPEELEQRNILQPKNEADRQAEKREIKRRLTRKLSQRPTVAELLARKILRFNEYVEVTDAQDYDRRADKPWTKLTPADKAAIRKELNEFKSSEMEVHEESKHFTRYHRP
UniProt O94880: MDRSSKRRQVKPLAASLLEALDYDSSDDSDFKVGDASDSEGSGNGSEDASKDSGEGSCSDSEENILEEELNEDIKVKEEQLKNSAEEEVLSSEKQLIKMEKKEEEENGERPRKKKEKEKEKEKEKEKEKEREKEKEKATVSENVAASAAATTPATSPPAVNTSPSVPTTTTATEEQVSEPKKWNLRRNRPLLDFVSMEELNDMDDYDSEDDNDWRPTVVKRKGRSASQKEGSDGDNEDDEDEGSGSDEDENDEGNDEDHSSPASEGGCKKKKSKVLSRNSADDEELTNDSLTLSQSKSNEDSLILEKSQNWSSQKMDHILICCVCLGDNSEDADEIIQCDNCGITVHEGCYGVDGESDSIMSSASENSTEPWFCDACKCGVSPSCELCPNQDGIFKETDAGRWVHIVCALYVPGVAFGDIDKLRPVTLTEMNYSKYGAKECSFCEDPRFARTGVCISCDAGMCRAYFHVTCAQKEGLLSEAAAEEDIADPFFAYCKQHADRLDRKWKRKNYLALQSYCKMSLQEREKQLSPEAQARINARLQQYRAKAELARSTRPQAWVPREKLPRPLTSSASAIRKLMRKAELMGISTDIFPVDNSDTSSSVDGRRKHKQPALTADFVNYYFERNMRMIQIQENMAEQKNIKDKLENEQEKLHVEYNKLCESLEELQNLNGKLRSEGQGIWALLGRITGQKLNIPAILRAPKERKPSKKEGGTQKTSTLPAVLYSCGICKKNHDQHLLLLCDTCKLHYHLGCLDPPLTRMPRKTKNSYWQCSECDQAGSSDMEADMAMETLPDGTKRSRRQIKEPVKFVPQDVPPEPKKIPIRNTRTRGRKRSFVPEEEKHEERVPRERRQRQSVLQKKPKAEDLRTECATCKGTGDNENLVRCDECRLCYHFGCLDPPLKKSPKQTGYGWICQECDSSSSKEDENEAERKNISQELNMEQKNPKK
UniProt P00558: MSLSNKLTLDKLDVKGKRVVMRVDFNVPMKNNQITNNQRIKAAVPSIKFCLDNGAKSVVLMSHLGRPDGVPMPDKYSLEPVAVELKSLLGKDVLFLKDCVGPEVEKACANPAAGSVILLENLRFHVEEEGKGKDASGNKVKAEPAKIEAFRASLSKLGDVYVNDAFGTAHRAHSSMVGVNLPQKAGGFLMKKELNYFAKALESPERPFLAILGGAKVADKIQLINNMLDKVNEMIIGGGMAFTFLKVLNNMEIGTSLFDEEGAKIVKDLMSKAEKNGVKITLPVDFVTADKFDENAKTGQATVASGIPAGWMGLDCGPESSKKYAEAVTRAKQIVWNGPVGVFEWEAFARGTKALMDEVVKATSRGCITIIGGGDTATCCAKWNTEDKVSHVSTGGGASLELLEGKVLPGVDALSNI
UniProt Q01970, whole entry, looked up: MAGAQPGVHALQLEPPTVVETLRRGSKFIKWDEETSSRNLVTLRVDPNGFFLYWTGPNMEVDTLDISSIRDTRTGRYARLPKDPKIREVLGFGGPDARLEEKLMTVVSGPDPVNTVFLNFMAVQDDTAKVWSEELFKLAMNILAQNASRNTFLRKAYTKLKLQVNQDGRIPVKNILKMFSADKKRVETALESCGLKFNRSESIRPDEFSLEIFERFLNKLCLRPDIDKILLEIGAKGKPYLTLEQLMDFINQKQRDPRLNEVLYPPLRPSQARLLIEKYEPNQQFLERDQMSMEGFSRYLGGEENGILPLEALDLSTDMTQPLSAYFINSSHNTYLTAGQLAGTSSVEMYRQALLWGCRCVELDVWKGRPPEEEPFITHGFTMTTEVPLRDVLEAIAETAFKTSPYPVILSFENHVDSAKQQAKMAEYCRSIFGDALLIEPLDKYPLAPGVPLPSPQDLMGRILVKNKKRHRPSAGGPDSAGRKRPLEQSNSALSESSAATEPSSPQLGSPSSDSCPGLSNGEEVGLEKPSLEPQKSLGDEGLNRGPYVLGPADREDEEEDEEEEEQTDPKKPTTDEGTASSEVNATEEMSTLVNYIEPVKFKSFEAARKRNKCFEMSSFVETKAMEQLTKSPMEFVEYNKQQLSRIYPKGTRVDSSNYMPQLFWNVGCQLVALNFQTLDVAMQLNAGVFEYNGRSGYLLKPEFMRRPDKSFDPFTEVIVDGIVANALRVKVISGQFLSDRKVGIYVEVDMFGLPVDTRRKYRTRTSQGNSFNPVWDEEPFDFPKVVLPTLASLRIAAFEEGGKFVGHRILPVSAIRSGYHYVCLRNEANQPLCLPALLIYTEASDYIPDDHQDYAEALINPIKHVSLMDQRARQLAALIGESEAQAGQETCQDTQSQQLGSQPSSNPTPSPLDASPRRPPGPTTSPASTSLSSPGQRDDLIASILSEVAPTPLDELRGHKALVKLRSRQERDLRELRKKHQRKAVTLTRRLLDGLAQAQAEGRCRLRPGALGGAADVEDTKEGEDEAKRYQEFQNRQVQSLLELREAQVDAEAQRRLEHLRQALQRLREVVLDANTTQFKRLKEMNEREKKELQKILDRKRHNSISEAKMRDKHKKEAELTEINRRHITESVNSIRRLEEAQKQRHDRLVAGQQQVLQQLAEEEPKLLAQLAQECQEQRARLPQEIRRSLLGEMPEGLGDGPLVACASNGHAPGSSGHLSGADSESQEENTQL
UniProt O00264: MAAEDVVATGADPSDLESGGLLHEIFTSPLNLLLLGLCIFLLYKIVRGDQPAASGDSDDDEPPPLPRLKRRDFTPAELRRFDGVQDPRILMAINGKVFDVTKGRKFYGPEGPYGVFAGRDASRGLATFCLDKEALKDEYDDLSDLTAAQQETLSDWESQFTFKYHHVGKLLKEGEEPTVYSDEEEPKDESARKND

Columns and labels:
Assay in all cases: log2 fold change, soluble protein after heating vs DMSO (PISA); higher = thermal stabilisation; K562 lysate, 10 uM; active = over 0.2 and 3.5 SD of the protein, either way, in both replicates (recomputed)
vemurafenib = compound: CCCS(=O)(=O)Nc1ccc(F)c(C(=O)c2c[nH]c3ncc(-c4ccc(Cl)cc4)cc23)c1F [vemurafenib]
Method in brief: (§1)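 The values are log-two fold changes in thermal stability compared with solvent controls and come from duplicates. They were obtained by TMTpro 16plex LC-MS/MS, with channel sums equalised, on the supernatant after 21,000xg for 90 min. That supernatant came from crude K562 extract at 1 mg/mL protein treated with 10 μM compound for 30 min, heated for 3 min across 48°C-58°C, pooled and brought to 0.5% NP-40 at 4°C.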

[1] = compound: CCCS(=O)(=O)Nc1ccc(F)c(C(=O)c2c[nH]c3ncc(Cl)cc23)c1F
Method in brief: as §1

barasertib = compound: CCN(CCCOc1ccc2c(Nc3cc(CC(=O)Nc4cccc(F)c4)[nH]n3)ncnc2c1)CCOP(=O)(O)O [barasertib]
Method in brief: as §1

[2] = compound: CC[C@@H]1C(=O)N(C)c2cnc(Nc3ccc(C(=O)NC4CCN(C)CC4)cc3OC)nc2N1C1CCCC1
Method in brief: as §1

volasertib = compound: CC[C@@H]1C(=O)N(C)c2cnc(Nc3ccc(C(=O)N[C@H]4CC[C@H](N5CCN(CC6CC6)CC5)CC4)cc3OC)nc2N1C(C)C [volasertib]
Method in brief: as §1

[3] = compound: CCn1c(C(=O)N(C2CC2)C2CC2)cc2c3c(ncn3C)c(Nc3cc(C)n(C)n3)nc21
Method in brief: as §1

[4] = compound: CCn1cc(-c2ccnc3[nH]c(-c4cccc(CN(C)C)c4)cc23)c(-c2ccc(NC(=O)N(C)C)cc2)n1
Method in brief: as §1

[5] = compound: CN1CCC(CNc2ccc3ncc(-c4cccc(OC(F)(F)F)c4)n3n2)CC1
Method in brief: as §1

saracatinib = compound: CN1CCN(CCOc2cc(OC3CCOCC3)c3c(Nc4c(Cl)ccc5c4OCO5)ncnc3c2)CC1 [saracatinib]
Method in brief: as §1

sotrastaurin = compound: CN1CCN(c2nc(C3=C(c4c[nH]c5ccccc45)C(=O)NC3=O)c3ccccc3n2)CC1 [sotrastaurin]
Method in brief: as §1

alvocidib = compound: CN1CC[C@H](c2c(O)cc(O)c3c(=O)cc(-c4ccccc4Cl)oc23)[C@H](O)C1 [alvocidib]
Method in brief: as §1

Tubastatin A = compound: CN1CCc2c(c3ccccc3n2Cc2ccc(C(=O)NO)cc2)C1 [Tubastatin A]
Method in brief: as §1

[6] = compound: CNC(=O)C1=CC=CC=C1NC2=NC(=NC=C2Cl)NC3=C(C=C(C=C3)N4CCOCC4)OC
Method in brief: as §1

defactinib = compound: CNC(=O)c1ccc(Nc2ncc(C(F)(F)F)c(NCc3nccnc3N(C)S(C)(=O)=O)n2)cc1 [defactinib]
Method in brief: as §1

[7] = compound: CNc1nc(-c2ccc3c(N)n[nH]c3c2)cc(N2C[C@@H](C(=O)NC3CCCCC3)CC[C@H]2C)n1
Method in brief: as §1

encorafenib = compound: COC(=O)N[C@@H](C)CNc1nccc(-c2cn(C(C)C)nc2-c2cc(Cl)cc(NS(C)(=O)=O)c2F)n1 [encorafenib]
Method in brief: as §1

[8] = compound: COC(=O)[C@H](CCSC)NC(=O)C1=C(C=C(C=C1)NC[C@H](CS)N)C2=CC=CC=C2
Method in brief: as §1

alisertib = compound: COc1cc(Nc2ncc3c(n2)-c2ccc(Cl)cc2C(c2c(F)cccc2OC)=NC3)ccc1C(=O)O [alisertib]
Method in brief: as §1

[9] = compound: COc1cc2nc(-c3cc(F)ccc3O)nc(N[C@@H]3CNC[C@H]3C(C)(C)O)c2cc1OC
Method in brief: as §1

gefitinib = compound: COc1cc2ncnc(Nc3ccc(F)c(Cl)c3)c2cc1OCCCN1CCOCC1 [gefitinib]
Method in brief: as §1

Measured: log2 fold change

PHB (UniProt P35232)
inactive: vemurafenib -0.047 | [1] 0.021 | barasertib 0.129 | [2] -0.025 | volasertib 0.036 | [3] 0.014 | [4] -0.037 | [5] -0.083 | saracatinib -0.038 | sotrastaurin -0.015 | alvocidib 0.017 | Tubastatin A 0.013 | [6] -0.011 | defactinib 0.016 | [7] -0.017 | encorafenib 0.009 | [8] -0.03 | alisertib 0.007 | [9] -0.02 | gefitinib -0.054

PITRM1 isoform 2 (UniProt Q5JRX3)
active: [8] 0.228
inactive: vemurafenib -0.026 | [1] 0.001 | barasertib -0.01 | [2] -0.018 | volasertib 0.127 | [3] -0.008 | [4] 0.07 | [5] -0.048 | saracatinib -0.021 | sotrastaurin 0.007 | alvocidib 0.016 | Tubastatin A 0.04 | [6] 0.023 | defactinib 0.008 | [7] -0.029 | encorafenib -0.012 | alisertib -0.016 | [9] -0.016 | gefitinib 0.044

PLA2G12A (UniProt Q9BZM1)
inactive: vemurafenib -0.074 | [1] 0.05 | barasertib -0.229 | volasertib -0.069 | [3] 0.018 | [4] 0.048 | [5] -0.137 | saracatinib -0.003 | sotrastaurin 0.138 | alvocidib -0.009 | Tubastatin A 0.036 | [6] 0.125 | defactinib 0.07 | [7] 0.022 | alisertib 0.068 | [9] -0.039 | gefitinib 0.432

PINX1 (UniProt Q96BK5)
inactive: vemurafenib 0.233 | [1] -0.069 | barasertib 0.105 | [2] 0.163 | volasertib -0.019 | [3] 0.051 | [4] 0.092 | [5] 0.09 | saracatinib 0.074 | sotrastaurin 0.025 | alvocidib -0.092 | Tubastatin A -0.058 | [6] -0.03 | defactinib 0.022 | [7] -0.031 | encorafenib 0.044 | [8] 0.039 | alisertib -0.04 | [9] -0.076 | gefitinib 0.144

PIP4K2B (UniProt P78356)
inactive: vemurafenib 0.016 | [1] 0.012 | barasertib -0.045 | volasertib 0.092 | [3] 0.038 | [4] 0.048 | [5] 0.065 | saracatinib -0.045 | sotrastaurin -0.009 | Tubastatin A 0.008 | [6] -0.014 | defactinib 0.031 | [7] -0.065 | encorafenib 0.062 | [8] -0.093 | alisertib -0.036 | [9] -0.028 | gefitinib 0.013
active: [2] 0.21 | alvocidib 0.223

PLBD2 (UniProt Q8NHP8)
inactive: vemurafenib 0.023 | [1] 0.011 | barasertib 0.013 | [2] -0.099 | volasertib 0.022 | [3] 0.013 | [4] 0 | [5] 0.076 | saracatinib -0.025 | sotrastaurin 0.024 | alvocidib -0.003 | Tubastatin A 0.042 | [6] 0.008 | defactinib -0.055 | [7] 0.031 | encorafenib 0.04 | [8] -0.034 | alisertib -0.023 | [9] -0.004 | gefitinib -0.041

PHF6 (UniProt Q8IWS0)
inactive: vemurafenib -0.014 | [1] 0.026 | barasertib -0.037 | [2] -0.055 | volasertib -0.033 | [3] 0.031 | [4] 0.173 | [5] -0.027 | saracatinib 0.006 | sotrastaurin -0.058 | alvocidib 0.02 | Tubastatin A -0.009 | [6] 0.039 | defactinib -0.038 | [7] 0 | encorafenib -0.021 | [8] 0.041 | alisertib 0.025 | [9] 0.007 | gefitinib -0.013

PIP4P1 isoform 2 (UniProt Q86T03)
inactive: vemurafenib -0.028 | [1] -0.027 | barasertib 0.077 | [2] 0.079 | volasertib -0.023 | [3] -0.053 | [4] -0.062 | [5] 0.06 | saracatinib 0.056 | sotrastaurin -0.007 | alvocidib -0.018 | Tubastatin A 0.077 | [6] 0.045 | defactinib 0.014 | [7] -0.028 | encorafenib -0.03 | [8] -0.072 | alisertib -0.047 | [9] 0.017 | gefitinib 0.011

PHACTR4 isoform 2 (UniProt Q8IZ21)
inactive: vemurafenib 0.011 | [1] 0.011 | barasertib -0.008 | [2] 0.065 | volasertib 0.023 | [3] -0.003 | [5] -0.178 | saracatinib 0 | sotrastaurin 0.013 | alvocidib 0.209 | Tubastatin A 0.016 | [6] -0.024 | defactinib 0.012 | [7] 0.1 | encorafenib -0.01 | [8] -0.016 | alisertib -0.019 | [9] 0.004 | gefitinib -0.022
active: [4] 0.836

PHF14 (UniProt O94880)
inactive: vemurafenib 0.079 | [1] -0.127 | barasertib -0.046 | [2] 0.341 | volasertib 0.004 | [3] -0.02 | saracatinib -0.047 | Tubastatin A 0.01 | defactinib -0.012 | [7] 0.02 | encorafenib -0.014 | [8] 0.1 | alisertib 0.044 | [9] -0.069 | gefitinib -0.042

PGK1 (UniProt P00558)
inactive: vemurafenib 0 | [1] -0.011 | barasertib -0.02 | [2] -0.013 | volasertib -0.006 | [3] -0.009 | [4] 0.082 | [5] -0.005 | saracatinib 0.003 | sotrastaurin -0.015 | alvocidib 0.017 | Tubastatin A 0.015 | [6] -0.016 | defactinib -0.019 | [7] 0.027 | encorafenib -0.035 | [8] 0.02 | alisertib 0.017 | [9] 0.09 | gefitinib -0.011

PLCB3 (UniProt Q01970)
inactive: vemurafenib -0.006 | [1] -0.006 | barasertib -0.006 | [2] 0.013 | volasertib -0.006 | [3] 0.011 | [4] 0.027 | [5] -0.013 | saracatinib 0.014 | sotrastaurin 0.004 | alvocidib 0.012 | Tubastatin A 0.028 | [6] -0.006 | defactinib 0.001 | [7] 0 | encorafenib -0.008 | [8] 0.059 | alisertib -0.013 | [9] -0.001 | gefitinib 0.036

PIGA (UniProt P37287)
inactive: vemurafenib 0.073 | [1] 0 | barasertib 0.011 | [2] 0.084 | volasertib 0.109 | [3] -0.081 | [4] 0.113 | [5] 0.02 | saracatinib 0.04 | sotrastaurin 0.007 | alvocidib -0.054 | Tubastatin A 0.067 | [6] -0.014 | defactinib -0.074 | [7] 0 | encorafenib -0.019 | [8] 0.063 | [9] -0.038

PGRMC1 (UniProt O00264)
inactive: vemurafenib -0.009 | [1] -0.043 | barasertib 0.019 | [2] 0.015 | volasertib 0.008 | [3] 0.021 | [4] -0.045 | [5] 0.071 | saracatinib -0.017 | sotrastaurin -0.003 | alvocidib -0.026 | Tubastatin A 0.01 | [6] -0.022 | defactinib 0.02 | [7] -0.014 | encorafenib 0.006 | alisertib 0.006 | [9] 0.006 | gefitinib 0.03
active: [8] -0.258

PIGM (UniProt Q9H3S5)
inactive: vemurafenib 0.074 | [1] 0.049 | barasertib 0.058 | [2] 0.04 | volasertib 0.075 | [3] -0.022 | sotrastaurin -0.014 | Tubastatin A 0.082 | [6] -0.344 | defactinib 0.03 | encorafenib 0.001 | [8] 0.041 | [9] 0.061

PHB2 (UniProt Q99623)
inactive: vemurafenib 0.002 | [1] -0.004 | barasertib -0.015 | [2] -0.002 | volasertib 0.041 | [3] -0.002 | [4] -0.065 | [5] 0.013 | saracatinib -0.012 | sotrastaurin -0.013 | alvocidib -0.012 | Tubastatin A 0.017 | [6] -0.02 | defactinib -0.019 | [7] -0.001 | encorafenib 0.002 | [8] -0.03 | alisertib 0.009 | [9] 0.006 | gefitinib -0.006

PLBD1 (UniProt Q6P4A8)
inactive: vemurafenib -0.006 | [1] 0.034 | barasertib 0.057 | [2] 0.038 | volasertib 0.056 | [3] 0.009 | [4] -0.032 | [5] 0.038 | saracatinib 0.061 | sotrastaurin 0.043 | alvocidib -0.026 | Tubastatin A -0.012 | [6] 0 | defactinib 0.025 | [7] -0.013 | encorafenib 0.064 | [8] -0.058 | alisertib 0.007 | [9] -0.019 | gefitinib 0.078
